{"source": "PubChem BioAssay AID485314", "about": "(National Center for Advancing Translational Sciences (NCATS), 2010)", "note": "In all, about 340,000 compounds went through this assay and about 4,500 (1.3%) were called active. The inconclusive results got no clear call from the source; some entries with a clear call stand among them for comparison. The call rests on the fitted dose curve; in most records, active means well fitted inhibition curve with a large enough effect; inconclusive means small, poorly fitted or top-dose-only effect, or another doubt; inactive means no such curve, though single readings can be large or run the other way. Where the call is inconclusive, the potency comes from a doubtful curve fit. On the % scale 0 is the no-effect control and ±100 the full control effect; potency means the concentration at half of the fitted maximal effect."}
{"biological_target": "DNA polymerase beta (Homo sapiens) (UniProt P06746)", "test": "qHTS Assay for Inhibitors of DNA Polymerase Beta", "conditions": "Pol beta primer extension/strand displacement, fluorescence kinetic; activity change, negative = inhibition: at 114 µM (top of the series)", "in_short": "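10 nM enzyme + cpd, 15 min RT; start with substrate 50 nM final; read 0 min and after 10 min RT. Corrected, normalized data; 4-parameter Hill curve fit.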"}
{"molecule": "CC(C)NC(=O)c1ccc2c(c1)N(CC(=O)N1CCCC1)C(=O)C(C)(C)O2", "Potency": "inconclusive: 39.8 µM [inhibitor, single point]"}
{"molecule": "COc1ccc(-c2nc(-c3cc4cc(Br)ccc4oc3=O)cs2)cc1", "Potency": "inconclusive: 79.4 µM [inhibitor, single point]"}
{"molecule": "O=C1C(=O)c2ccccc2C(O)=C1CCCCl", "activity change, negative = inhibition": "inactive: 30%"}
{"molecule": "Cc1ccc(-c2nc(-c3ccccn3)no2)cc1", "activity change, negative = inhibition": "inactive: 10.2%"}
{"molecule": "O=c1[nH]n2c(=O)c3c([nH]c2c1N=Nc1cccc(Cl)c1)CCC3", "Potency": "active: 8.91 µM"}
{"molecule": "N#CC(Cc1ccc(O)c(O)c1)C(=O)N1CCc2ccccc21", "note": "(stereo not given)", "Potency": "inconclusive: 20 µM [inhibitor, partial curve]"}
{"molecule": "O=C(NC(CO)Cc1ccccc1)c1ccccc1", "note": "(stereo not given)", "activity change, negative = inhibition": "inactive: 3.53%"}
{"molecule": "Cc1ccc2nc(N(CCCN(C)C)C(=O)c3ccco3)sc2c1", "Potency": "inconclusive: 0.316 µM [inhibitor, full curve, poor fit]"}
{"molecule": "O=C1Nc2ccccc2Oc2cc(Oc3cccc(Cl)c3)ccc21", "activity change, negative = inhibition": "inactive: 3.91%"}
{"molecule": "COc1ccc2c(c1)c1ccc3c(c1n2C)C(=O)C=CC3=O", "activity change, negative = inhibition": "inactive: 19.3%"}
{"molecule": "COc1cc([N+](=O)[O-])ccc1NC(=O)CCS(=O)(=O)c1ccc2c(c1)n(C)c(=O)c(=O)n2C", "Potency": "inconclusive: 0.141 µM [inhibitor, full curve, poor fit]"}
{"molecule": "Cc1cc(/C=C2/C(=N)N3C(c4ccccc4)=CSC3=NC2=O)c(C)n1-c1ccccc1", "activity change, negative = inhibition": "inactive: 4.66%"}
{"molecule": "CC(/C=C/c1ccco1)=N\\NC(=O)c1cccnc1", "Potency": "inconclusive: 25.1 µM [inhibitor, full curve, poor fit]"}
{"molecule": "CC(C)[C@H](NC(=O)c1ccccc1)C(=O)OCc1nnc(-c2ccccc2)o1", "Potency": "inconclusive: 89.1 µM [inhibitor, single point]"}
{"molecule": "Cc1ccc(NC(=O)CN(C)S(=O)(=O)c2ccc3c(c2)n(C)c(=O)c(=O)n3C)cc1F", "activity change, negative = inhibition": "inactive: -12.3%"}
{"molecule": "CCOC(=O)C1CCCN(C(=S)Nc2cc(C)cc(C)c2)C1", "note": "(stereo not given)", "Potency": "inconclusive: 70.8 µM [inhibitor, partial curve, poor fit]"}
{"molecule": "COc1cc(/C=N\\Nc2nc3ccccc3[nH]2)cc(OC)c1OC", "Potency": "inconclusive: 10 µM [inhibitor, full curve]"}
{"molecule": "CN(C)C=NC(=O)c1cc(C(=O)c2ccc(F)cc2)c[nH]1", "Potency": "inconclusive: 4.47 µM [inhibitor, full curve]"}
{"molecule": "CC(=O)N1CCCc2cc(S(=O)(=O)CCC(=O)N3CCN(c4cccc(C)c4)C(C)C3)ccc21", "note": "(stereo not given)", "Potency": "inconclusive: 22.4 µM [inhibitor, partial curve]"}
{"molecule": "CC(C)c1ccc(OCC(=O)N(Cc2ccco2)C2CCS(=O)(=O)C2)cc1", "note": "(stereo not given)", "Potency": "inconclusive: 0.141 µM [inhibitor, full curve, poor fit]"}
{"molecule": "C=CCc1ccccc1OCCSc1nc(-c2cccs2)nc2cc(=O)[nH]n12", "Potency": "active: 25.1 µM"}
{"molecule": "NC(=O)c1cc(-c2ccccc2)nc(N2CCOCC2)n1", "Potency": "inconclusive: 89.1 µM [inhibitor, single point]"}
{"molecule": "CCOC(=O)COc1ccc(/C=C(\\C#N)c2nc3ccc(C)cc3[nH]2)cc1OC", "Potency": "active: 11.2 µM"}
{"molecule": "Cc1cccc(NC(=O)c2cc3c(=O)n4ccccc4nc3s2)c1", "Potency": "active: 7.08 µM"}
{"molecule": "CCCC1=NN(c2ccc([N+](=O)[O-])cc2)C(=O)/C1=C/N(C)C", "Potency": "inconclusive: 39.8 µM [inhibitor, single point]"}
{"molecule": "CCCn1c(-c2ccc(OC)cc2)nc2c(=O)n(C)c(=O)[nH]c21", "activity change, negative = inhibition": "inactive: 0.108%"}
{"molecule": "O=C(CCC(=O)c1cccs1)NCc1ccc(Cl)cc1", "Potency": "inconclusive: 89.1 µM [inhibitor, single point]"}
{"molecule": "CCc1ccc(NC(=O)Cn2ccn(-c3ccc(OC)cc3)c(=O)c2=O)cc1", "Potency": "active: 31.6 µM"}
{"molecule": "CC(=O)c1ccc(S(=O)(=O)Nc2ccc(-c3ccc(N4CCCCC4)nn3)cc2)cc1", "Potency": "inconclusive: 89.1 µM [inhibitor, single point]"}
{"molecule": "COc1ccc(CCNC(=O)c2csc3c2CCCCC3)c(OC)c1", "activity change, negative = inhibition": "inactive: -13%"}
{"molecule": "COc1ccccc1OCCCCn1c(C(C)O)nc2ccccc21", "note": "(stereo not given)", "Potency": "inconclusive: 11.2 µM [inhibitor, partial curve]"}
{"molecule": "COc1cc2c(cc1OC)C1O[C@](CCCCN3C(=O)c4ccccc4C3=O)(C2)Oc2cc(C)n(Cc3ccccc3)c(=O)c21", "activity change, negative = inhibition": "inactive: 45.4% [at 22.9 µM]"}
{"molecule": "Cn1c(NN)nc2c1c(=O)n(Cc1ccccc1)c(=O)n2C", "Potency": "active: 39.8 µM"}
{"molecule": "O=C1C2=C(C(=O)c3ccccc31)C1O[C@](c3ccsc3)(Cc3ccccc31)O2", "Potency": "inconclusive: 2.51 µM [inhibitor, full curve]"}
{"molecule": "CCc1cc2c(=O)n3c(nc2s1)-c1[nH]c2ccc(OC)cc2c1CC3", "Potency": "inconclusive: 0.891 µM [inhibitor, full curve, poor fit]"}
{"molecule": "Cc1cc2c(cc1S(=O)(=O)CCC(=O)N(C)C1CCCCC1)OCC(=O)N2", "Potency": "inconclusive: 100 µM [inhibitor, single point]"}
{"molecule": "CC(C)(C)c1cc(C(=O)NCCN2CCCC2)cc(C(C)(C)C)c1", "activity change, negative = inhibition": "inactive: 13.6%"}
{"molecule": "O=C(NCc1ccco1)c1cccc(NS(=O)(=O)c2cccc(F)c2)c1", "Potency": "inconclusive: 4.47 µM [inhibitor, full curve, poor fit]"}
{"molecule": "O=C(COC(=O)c1ccco1)Nc1nc2ccc([N+](=O)[O-])cc2s1", "Potency": "inconclusive: 8.91 µM [inhibitor, partial curve]"}
{"molecule": "CCc1ccc(CN(C)C(=O)CCc2nc3ccccc3n(-c3ccc(OC)cc3)c2=O)cc1", "Potency": "inconclusive: 39.8 µM [inhibitor, single point]"}
{"molecule": "O=C(CSc1ncnc2nc[nH]c12)Nc1ccc(Br)cc1Cl", "activity change, negative = inhibition": "inconclusive: -31.9% [inhibitor]"}
{"molecule": "CCN1CCN(Cc2ccc(NC(=O)c3ccc(C)c(NC(=O)C(=O)c4c[nH]c5ccccc45)c3)cc2C(F)(F)F)CC1", "Potency": "inactive"}
{"molecule": "COc1cc(/C=N/NC(=O)NC23CC4CC(CC(C4)C2)C3)ccc1O", "activity change, negative = inhibition": "inactive: 0.221%"}
{"molecule": "CS(=O)(=O)N(CC(=O)N1CCN(Cc2ccccc2)CC1)Cc1ccccc1", "Potency": "inconclusive: 89.1 µM [inhibitor, single point]"}
{"molecule": "CCOc1ccccc1NC(=O)C1CCCN(c2ncnc3onc(-c4ccc(F)cc4)c23)C1", "note": "(stereo not given)", "activity change, negative = inhibition": "inactive: 12.8%"}
